From PMC5996148
Values joined by “and” are separate entries in the source; they are usually repeats but may differ in a detail not shown here. Identical values can stand only once. This is one part of the list.

Columns and labels:
Assay in all cases: protein microarray (ProtoArray v5.0), streptavidin-Alexa Fluor 647
Conditions in all cases: 3'-biotin; 20 mM Tris (pH 7.5), 5 mM MgCl2, 100 mM KCl, 0.1% Tween-20, A/T-rich and random oligonucleotide blockers; temperature not stated; high values mean tight binding
UBE2T (human) = system: UBE2T (human)
UBE2Z (human) = system: UBE2Z (human)
UBE3C (human) = system: UBE3C (human)
UBQLN1 (human) = system: UBQLN1 (human)
UBQLN2 (human) = system: UBQLN2 (human)
UBTD2 (human) = system: UBTD2 (human)
[1] = system: UBX domain-containing protein 7 (human)
UCHL1 (human) = system: UCHL1 (human)
UCHL3 (human) = system: UCHL3 (human)
UCHL5 (human) = system: UCHL5 (human)

With “GGGGACAGGGGTATGGGGAGGGG [G4-3 biotinylated (CtG)]” as the sequence, how does the binding signal (UBE2T (human)) read?
Its binding signal is -0.324 z-score.

What about the binding signal (UBE2Z (human)) of the same sequence?
The binding signal was -0.315 z-score.

What about the binding signal (UBE3C (human)) of the same sequence?
Its binding signal is -0.316 z-score.

And the binding signal (UBQLN1 (human))?
The binding signal was -0.331 z-score.

And the binding signal (UBQLN2 (human))?
Its binding signal is -0.33 z-score.

What about the binding signal (UBTD2 (human)) of the same sequence?
Its binding signal is -0.327 z-score.

And the binding signal [1]?
Its binding signal is -0.345 z-score.

And the binding signal (UCHL1 (human))?
The binding signal was -0.337 z-score.

What about the binding signal (UCHL3 (human)) of the same sequence?
The binding signal was -0.333 z-score.

And the binding signal (UCHL5 (human))?
The binding signal was -0.331 z-score and -0.338 z-score.
